Changes are numbered by the printed parent chain. In names and notes the source's numbering stands. No constants are given. Whether binding was seen depends on the method and setting. Binding can be weak; no strength is given. Where a sequence is shown, tags or fusion partners need not be part of it.
B1: GAD-Rif2 (wild-type Rif2 fused to the Gal4 activation domain, plasmid pAB1243) (protein, UniProt Q06208 1-395)
chain: MEHVDSDFAPIRRSKKVVDSDKIVKAISDDLEQKNFTVLRKLNLVPIKKSVSSPKVCKPSPVKERVDHVFYQKFKSMALQELGTNYLSISYVPSLSKFLSKNLRSMKNCIVFFDKVEHIHQYAGIDRAVSETLSLVDINVVIIEMNDYLMKEGIQSSKSKECIESMGQASYSGQLDFEASEKPSNHTSDLMMMVMRKINNDESIDHIVYFKFEQLDKLSTSTIIEPSKLTEFINVLSVLEKSNNIAFKVLIYSNNVSISSLLSTSLKKKLNTKYTVFEMPILTCAQEQEYLKKMIKFTFDSGSKLLQSYNSLVTCQLNNKESNLAIFFEFLKVFPHPFTYLFNAYTEIIVQSRTFDELLDKIRNRLTIKNYPHSAYNFKKNQRLPLKLTRKVHDR
B2: GAD-Rif2^I23E (Rif2 I23E fused to the Gal4 activation domain, plasmid pML801) (protein, UniProt Q06208 1-395)
chain: B1 chain with I23E

Target: GBD-Rad50 head domain (Rad50 head fused to the Gal4 binding domain, plasmid pAB2287) (S. cerevisiae)
Experiment: two-hybrid; GBD and GAD fusion plasmids co-transformed in YAB125 cells; 10-fold dilutions spotted on SC -leu -trp with or without histidine; 30°C, three or four days

Binder | binding
B1 | binds
B2 | binds
